Data on 13 compounds can be found in PubChem BioAssay AID212 (DTP/NCI, 2004).

The list does not hold the whole screen: it gathers tests that were run many times, whatever their T/C, doses with no T/C, and many T/C values between a quarter and a half above the control. Further doses and runs are listed elsewhere. T/C gives the treated animals as a percentage of the vehicle group. Schedule codes are those of the source, read here as Q, the interval in days (D) or hours (H), X, the number of doses. Some T/C values carry the count of animals alive at the toxicity check (mostly the fifth day); without a count, all were alive then. Some entries hold several experiments; their values stand side by side, smallest first. Some doses have a count of surviving animals in place of a T/C: the source files T/C as zero there, which appears to mark a toxic dose or a test without result, not a measured value. Some doses without a T/C left all or most animals alive at the check, yet need not have been tolerated: the source hardly ever lists a survival T/C far under the control, and the zero likely stands for such cases as well. Survivors were counted at the toxicity check, usually on the fifth day, unless a day is given; later deaths do not show. For survival time, this PubChem deposit counts one and a half times the control or more as active, and values a quarter to a half above the control carry no call in these data; other NCI protocols may use other cut-offs.

The assay deals with BDF1 mice, colon carcinoma 38 sc, T/C %. Briefly: NCI In Vivo Anticancer Drug Screen. Data for tumor model Colon Carcinoma 38 (subcutaneous) in B6D2F1 (BDF1) mice. As to the method:
The antitumor activity of compounds was measured in mice bearing transplantable tumors. Survival or tumor size were measured and the results are expressed as the measurement made in the treated group (T) divided by the measurement made in the vehicle treated control group (C). The tumor model used in this assay is Colon Carcinoma 38 (subcutaneous) in B6D2F1 (BDF1) mice

Setting [1] is: T/C endpoint: median tumor weight (est.), dose: 200.0 mg/kg/injection, schedule: Q07DX002 (ip), vehicle: saline with Tween-80, evaluated on day 20, higher T/C = larger tumour.
Setting [2] is: T/C endpoint: median tumor weight (est.), dose: 400.0 mg/kg/injection, schedule: Q07DX002 (ip), vehicle: saline with Tween-80, evaluated on day 20, higher T/C = larger tumour.
Setting [3] is: T/C endpoint: median tumor weight (est.), dose: 25.0 mg/kg/injection, schedule: Q07DX002 (ip), vehicle: saline with Tween-80, evaluated on day 20, higher T/C = larger tumour.
The mark [4] stands for this setting: T/C endpoint: median tumor weight (est.), dose: 200.0 mg/kg/injection, schedule: Q07DX002 (ip), vehicle: saline with Tween-80, higher T/C = larger tumour.
Where [5] appears, read: T/C endpoint: median survival time, dose: 400.0 mg/kg/injection, schedule: Q01DX008 (oral), vehicle: saline with Tween-80, higher T/C = longer survival.
The mark [6] stands for this setting: T/C endpoint: median tumor weight (est.), dose: 50.0 mg/kg/injection, schedule: Q07DX002 (ip), vehicle: saline with Tween-80, evaluated on day 20, higher T/C = larger tumour.
Where [7] appears, read: T/C endpoint: median tumor weight (est.), dose: 400.0 mg/kg/injection, schedule: Q07DX002 (ip), vehicle: saline with Tween-80, higher T/C = larger tumour.

For the compound `Clc1ccc(CN2COc3c(ccc4cccnc34)C2)cc1Cl`, the T/C is 141 % of control under setting [1] and 138 % of control under setting [2].

Regarding `Oc1c(Cl)cc(C(c2cc(Cl)c(O)c(Cl)c2)C(c2cc(Cl)c(O)c(Cl)c2)c2cc(Cl)c(O)c(Cl)c2)cc1Cl`, the T/C reads like this: (T/C endpoint: median tumor weight (est.), dose: 25.0 mg/kg/injection, schedule: Q07DX002 (ip), vehicle: Klucel (hydroxypropylcellulose) (HPC), evaluated on day 20, higher T/C = larger tumour) 128 % of control; (T/C endpoint: median tumor weight (est.), dose: 50.0 mg/kg/injection, schedule: Q07DX002 (ip), vehicle: Klucel (hydroxypropylcellulose) (HPC), evaluated on day 20, higher T/C = larger tumour) 127 % of control [9 of 10 alive on day 20].

Turning to `O=C(NO)c1ccccc1`, the T/C is 135 % of control (T/C endpoint: median tumor weight (est.), dose: 50.0 mg/kg/injection, schedule: Q07DX002 (ip), vehicle: suspension in saline, evaluated on day 20, higher T/C = larger tumour) and 148 % of control (T/C endpoint: median tumor weight (est.), dose: 100.0 mg/kg/injection, schedule: Q07DX002 (ip), vehicle: suspension in saline, evaluated on day 20, higher T/C = larger tumour).

For the compound `COc1cc2c(c(OC)c1OC)-c1ccc(OC)c(=O)cc1[C@@H](NC(C)=O)CC2`, the T/C reads like this: (T/C endpoint: median tumor weight (est.), dose: 0.39 mg/kg/injection, schedule: Q07DX002 (ip), vehicle: saline, evaluated on day 20, higher T/C = larger tumour) 131 % of control; (T/C endpoint: median tumor weight (est.), dose: 0.5 mg/kg/injection, schedule: Q07DX002 (ip), vehicle: saline, evaluated on day 20, higher T/C = larger tumour) 146 % of control; (T/C endpoint: median tumor weight (est.), dose: 0.78 mg/kg/injection, schedule: Q07DX002 (ip), vehicle: saline, evaluated on day 20, higher T/C = larger tumour) 142 % of control; (T/C endpoint: median tumor weight (est.), dose: 2.0 mg/kg/injection, schedule: Q07DX002 (ip), vehicle: saline, evaluated on day 20, higher T/C = larger tumour) 130 % of control. Also, the survivor count is 2 of 10 on day 20 and 6 of 10 on day 20 (T/C endpoint: median tumor weight (est.), dose: 3.12 mg/kg/injection, schedule: Q07DX002 (ip), vehicle: saline, higher T/C = larger tumour); 0 of 10 on day 20 (T/C endpoint: median tumor weight (est.), dose: 6.25 mg/kg/injection, schedule: Q07DX002 (ip), vehicle: saline, higher T/C = larger tumour); 0 of 10 on day 20 (T/C endpoint: median tumor weight (est.), dose: 12.0 mg/kg/injection, schedule: Q07DX002 (ip), vehicle: saline, higher T/C = larger tumour); 0 of 10 on day 20 and 1 of 10 on day 20 (T/C endpoint: median tumor weight (est.), dose: 12.5 mg/kg/injection, schedule: Q07DX002 (ip), vehicle: saline, higher T/C = larger tumour); 0 of 10 on day 20 (T/C endpoint: median tumor weight (est.), dose: 25.0 mg/kg/injection, schedule: Q07DX002 (ip), vehicle: saline, higher T/C = larger tumour); 0 of 10 on day 20 (T/C endpoint: median tumor weight (est.), dose: 50.0 mg/kg/injection, schedule: Q07DX002 (ip), vehicle: saline, higher T/C = larger tumour). Besides, the survivor count is, setting by setting: (T/C endpoint: median tumor weight (est.), dose: 100.0 mg/kg/injection, schedule: Q07DX002 (ip), vehicle: saline, higher T/C = larger tumour) 0 of 10 on day 20; (T/C endpoint: median tumor weight (est.), dose: 200.0 mg/kg/injection, schedule: Q07DX002 (ip), vehicle: saline, higher T/C = larger tumour) 0 of 10 on day 20; (T/C endpoint: median tumor weight (est.), dose: 400.0 mg/kg/injection, schedule: Q07DX002 (ip), vehicle: saline, higher T/C = larger tumour) 0 of 10 on day 20.

`Nc1nc2n[nH]nc2c(=O)[nH]1`: the survivor count (T/C endpoint: median tumor weight (est.), dose: 800.0 mg/kg/injection, schedule: Q07DX002 (ip), vehicle: suspension in saline, higher T/C = larger tumour) is recorded as 2 of 10 on day 20.

In the case of `O=Cc1ccc([N+](=O)[O-])s1`, under setting [3], the T/C was 137 % of control. For the same compound, the survivor count by setting is: (T/C endpoint: median tumor weight (est.), dose: 100.0 mg/kg/injection, schedule: Q07DX002 (ip), vehicle: saline with Tween-80, higher T/C = larger tumour) 5 of 10 on day 20; under setting [4], 5 of 10 on day 20.

Turning to `CSc1cc(=O)n2c3ccccc3c3ccnc1c32`, the T/C (T/C endpoint: median tumor weight (est.), dose: 80.0 mg/kg/injection, schedule: Q07DX002 (ip), vehicle: saline with Tween-80, evaluated on day 20, higher T/C = larger tumour) is 125 % of control.

Consider `Nc1ccc2c(c1)CN1C(=O)c3ccccc3C1=N2`, for which the T/C was 141 % of control (T/C endpoint: median survival time, dose: 100.0 mg/kg/injection, schedule: Q01DX008 (oral), vehicle: saline with Tween-80, higher T/C = longer survival); 141 % of control (T/C endpoint: median survival time, dose: 200.0 mg/kg/injection, schedule: Q01DX008 (oral), vehicle: saline with Tween-80, higher T/C = longer survival); 141 % of control [7 of 10 alive on day 21] under setting [5]; 141 % of control (T/C endpoint: median survival time, dose: 600.0 mg/kg/injection, schedule: Q07DX002 (oral), vehicle: saline with Tween-80, higher T/C = longer survival); 141 % of control (T/C endpoint: median survival time, dose: 800.0 mg/kg/injection, schedule: Q07DX002 (oral), vehicle: saline with Tween-80, higher T/C = longer survival); 141 % of control (T/C endpoint: median survival time, dose: 1000.0 mg/kg/injection, schedule: Q07DX002 (oral), vehicle: saline with Tween-80, higher T/C = longer survival). The T/C under setting [3] was 20, 37 [9 of 10 alive on day 20], 53, 72, 76, 90, 94 % of control; the T/C under setting [6] is 27, 32, 52, 60, 64, 65, 83, 88 % of control; the T/C (T/C endpoint: median tumor weight (est.), dose: 100.0 mg/kg/injection, schedule: Q07DX002 (ip), vehicle: saline with Tween-80, evaluated on day 20, higher T/C = larger tumour) is reported as 17, 23, 24, 25, 44, 50, 60 % of control; the T/C under setting [1] was 3, 3 [9 of 10 alive on day 20], 4, 8, 19, 53 % of control; the T/C under setting [2] is 26 % of control [8 of 10 alive on day 20]. Besides, the survivor count under setting [5] is 9 of 10 on day 21; the survivor count (T/C endpoint: median tumor weight (est.), dose: 200.0 mg/kg/injection, schedule: Q07DX002 (ip), vehicle: other, higher T/C = larger tumour) was 1 of 10 on day 20; the survivor count (T/C endpoint: median tumor weight (est.), dose: 400.0 mg/kg/injection, schedule: Q07DX002 (ip), vehicle: other, higher T/C = larger tumour) was 0 of 8 on day 20 and 6 of 10 on day 20; the survivor count under setting [7] is 1 of 10 on day 20, 2 of 10 on day 20, 5 of 10 on day 20, 6 of 10 on day 20; the survivor count (T/C endpoint: median tumor weight change, dose: 237.4 mg/kg/injection, schedule: Q01DX009 (oral), vehicle: saline with Tween-80, higher T/C = larger tumour) was 5 of 10 on day 20; the survivor count (T/C endpoint: median tumor weight change, dose: 355.9 mg/kg/injection, schedule: Q01DX009 (oral), vehicle: saline with Tween-80, higher T/C = larger tumour) was 0 of 10 on day 20. For the setting “T/C endpoint: median tumor weight change, dose: 533.6 mg/kg/injection, schedule: Q01DX005 (oral), vehicle: saline with Tween-80, higher T/C = larger tumour”, the survivor count is reported as 3 of 10 on day 20.

Turning to `O=C(Nc1cccc(Cl)c1)ON1C(=O)C2C(C1=O)C1(Cl)C(Cl)C(Cl)C2(Cl)C1(Cl)Cl` (stereo unspecified), the T/C under setting [6] was 131 % of control. Besides, under “T/C endpoint: median tumor weight (est.), dose: 800.0 mg/kg/injection, schedule: Q07DX002 (ip), vehicle: saline with Tween-80, higher T/C = larger tumour”, the survivor count is reported as 0 of 10 on day 20.

Consider `O=S(=O)(CCl)OCCCl`, for which the survivor count runs as follows: under setting [4], 0 of 10 on day 20; under setting [7], 0 of 10 on day 20.

On to `CC(=O)OCc1cc(=O)n(C)c2c3c4c(cc12)c(C)cc(=O)n4CO3`, for which the T/C is, setting by setting: (T/C endpoint: median tumor weight (est.), dose: 25.0 mg/kg/injection, schedule: Q07DX003 (ip), vehicle: Klucel (hydroxypropylcellulose) (HPC), evaluated on day 20, higher T/C = larger tumour) 138 % of control; (T/C endpoint: median tumor weight (est.), dose: 50.0 mg/kg/injection, schedule: Q07DX003 (ip), vehicle: Klucel (hydroxypropylcellulose) (HPC), evaluated on day 20, higher T/C = larger tumour) 134 % of control.

For the compound `CC1(C)CC23C4COC(=O)C2CCC1C3CC4=O` (stereo unspecified), the T/C (T/C endpoint: median tumor weight (est.), dose: 12.5 mg/kg/injection, schedule: Q07DX002 (ip), vehicle: DMSO, evaluated on day 20, higher T/C = larger tumour) is 136 [9 of 10 alive on day 20] and 145 % of control. For the same compound, the survivor count (T/C endpoint: median tumor weight (est.), dose: 200.0 mg/kg/injection, schedule: Q07DX002 (ip), vehicle: DMSO, higher T/C = larger tumour) is reported as 0 of 10 on day 20.

As to `NC(=O)c1ncn(C2OC(CO)C(O)C2O)n1` (stereo unspecified), the T/C runs as follows: (T/C endpoint: median tumor weight (est.), dose: 12.5 mg/kg/injection, schedule: Q07DX002 (ip), vehicle: saline, evaluated on day 20, higher T/C = larger tumour) 88, 89, 111, 150 % of control; (T/C endpoint: median tumor weight (est.), dose: 25.0 mg/kg/injection, schedule: Q07DX002 (ip), vehicle: saline, evaluated on day 20, higher T/C = larger tumour) 71, 83, 107, 124 % of control; (T/C endpoint: median tumor weight (est.), dose: 50.0 mg/kg/injection, schedule: Q07DX002 (ip), vehicle: saline, evaluated on day 20, higher T/C = larger tumour) 82, 88, 104, 159 % of control; (T/C endpoint: median tumor weight (est.), dose: 100.0 mg/kg/injection, schedule: Q07DX002 (ip), vehicle: saline, evaluated on day 20, higher T/C = larger tumour) 65 [9 of 10 alive on day 20], 93, 106, 129 % of control; (T/C endpoint: median tumor weight (est.), dose: 200.0 mg/kg/injection, schedule: Q07DX002 (ip), vehicle: saline, evaluated on day 20, higher T/C = larger tumour) 65, 75 [9 of 10 alive on day 20], 79, 90 % of control; (T/C endpoint: median tumor weight (est.), dose: 400.0 mg/kg/injection, schedule: Q07DX002 (ip), vehicle: saline, evaluated on day 20, higher T/C = larger tumour) 65, 80, 108 [9 of 10 alive on day 20], 151 % of control [9 of 10 alive on day 20].
